No signal at the amounts used counts as a negative. For some assays here: The exact form of at least one protein or probe is not confirmed.
Key:
[1] = system: fibrinogen; test: SPR; conditions: AS2 100 nM, 2 mM MgCl2; SPR (Biacore CM5): PBS pH 7.4, 2 mM MgCl2 (PBSM), 25 °C, 15 µl/min, blank flow cell reference; commercial protein; single-stranded DNA
[2] = target: human serum albumin (HSA) (Homo sapiens) (UniProt P02768); test: SPR; conditions: AS2 100 nM, 2 mM MgCl2; SPR (Biacore CM5): PBS pH 7.4, 2 mM MgCl2 (PBSM), 25 °C, 15 µl/min, blank flow cell reference; commercial protein; single-stranded DNA

Sequence: GGGCGGGGCGGACGAGACAGTAAGGGCTGTGGGTGTGGTG [AS2]
- binding result [1]: no binding
- binding result [2]: no binding
